US8580732B2, “Peptide therapy for hyperglycemia” (Duke University, priority 2009, dated 2013)
At least one compound was matched to its structure with a doubt left.

Test system: isolated rat islets
Assay: Etoposide-induced apoptosis, Annexin V staining by flow cytometry, isolated rat islets
Format: cell-based
Conditions: co-culture with etoposide 0.2 mM, 72 hr
Description: Pools of 50 islets were treated with DMSO, etoposide (0.2 mM) or camptothecin (10 μM) for 72 hrs as indicated. Islets were co-incubated with peptide (50 nM TLQP-21, 50 nM exendin-4), H89 (concentration), and/or LY294002 (concentration) where indicated. Islets were dispersed using 0.05% trypsin/EDTA (Sigma) diluted 1:1 with cell dissociation buffer (Sigma) for 5-10 min at 37 C following gentle pipetting. Islets were recovered by centrifugation and stained with FITC-conjugated Annexin V and propidium iodide (Roche) according to the manufacturer's specifications. Data were collected using a FACScan analyzer and analyzed using WinMDI 2.9 software.

## C=C[C@@]1(C)CC(=O)[C@]2(O)[C@@]3(C)[C@@H](O)CCC(C)(C)[C@@H]3[C@H](O)[C@H](OC(C)=O)[C@@]2(C)O1 [forskolin]
  protection against etoposide-mediated apoptosis: completely protective
